{"source": "PubChem BioAssay AID2685", "about": "(National Center for Advancing Translational Sciences (NCATS), 2010)", "test": "qHTS Assay for Lipid Storage Modulators in Drosophila S3 Cells;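 on cell number change: cells counted by Cell Tracker Red CMTPX staining in the red channel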", "conditions": "BODIPY lipid droplet fluorescence, 18-24 h; for cell number change: measured here: cell count max response, cells fed with added oleic acid", "how_it_was_run": "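Drosophila S3 cells loaded with oleic acid (400 uM, as added) and compounds at several concentrations; lipid droplets imaged by 488-nm laser-scanning cytometry, 500–530 nm intensity and object ratio to cell channel. Percent activity normalized to 20 uM Triacsin C.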", "key": {"[1]": {"conditions": "measured here: cell number channel AC50, cells fed with added oleic acid"}, "[2]": {"conditions": "measured here: lipid fluorescence (Fed channel) AC50, cells fed with added oleic acid"}}, "note": "Some of the results follow. Shown are side measurements of this screen, not its main read-out; they come without a call. The list favours compounds with an active or inconclusive main result. Words in brackets tell the shape of the fitted curve; partial curves, single points and poor fits give uncertain potencies."}
{"molecule": "Cc1cc(C)c(C#N)c(OCC(=O)c2ccccc2)n1", "values": [{"measurement": "cell number change", "result": -9.9, "unit": "%"}]}
{"molecule": "CCOC(=O)CNC(=O)c1c(C)nn(-c2ccccc2)c1Cl", "values": [{"measurement": "cell number change", "result": 93.8, "unit": "%"}, {"measurement": "AC50", "setting": "[1]", "result": "29.1 µM [rising, single point]"}, {"measurement": "AC50", "setting": "[2]", "result": "29.1 µM [rising, single point]"}]}
{"molecule": "COc1cc2c(cc1OC)C(c1ccccc1C)CC(=O)N2", "note": "(stereo not drawn)", "values": [{"measurement": "cell number change", "result": 2.65, "unit": "%"}, {"measurement": "AC50", "setting": "[2]", "result": "20.6 µM [rising, single point]"}]}
{"molecule": "COC(=O)C1=C(C)N(C)C(=O)NC1c1c(OC)ccc2ccccc12", "note": "(stereo not drawn)", "values": [{"measurement": "cell number change", "result": 10.5, "unit": "%"}]}
{"molecule": "O=C(NCCN1CCOCC1)c1cccc(S(=O)(=O)N2CCCCCC2)c1", "values": [{"measurement": "cell number change", "result": 8.05, "unit": "%"}, {"measurement": "AC50", "setting": "[2]", "result": "29.1 µM [rising, single point]"}]}
{"molecule": "CCOC(=O)N1CCC(NC(=O)C2CCCN(C(=O)c3cc4sccc4n3C)C2)CC1", "note": "(stereo not drawn)", "values": [{"measurement": "cell number change", "result": -23.7, "unit": "%"}]}
{"molecule": "CC1CCCC(C)N1C(=O)CN1C(=O)C(C)(C)Oc2ccc(C(=O)NC3CCCC3)cc21", "note": "(stereo not drawn)", "values": [{"measurement": "cell number change", "result": -56.2, "unit": "%"}, {"measurement": "AC50", "setting": "[1]", "result": "13 µM [falling, partial curve, poor fit]"}, {"measurement": "AC50", "setting": "[2]", "result": "23.1 µM [falling, partial curve]"}]}
{"molecule": "O=C(Nc1nc(-c2ccccc2)cs1)C1CCCCN1S(=O)(=O)c1ccccc1", "note": "(stereo not drawn)", "values": [{"measurement": "cell number change", "result": -28.9, "unit": "%"}, {"measurement": "AC50", "setting": "[2]", "result": "29.1 µM [falling, single point]"}]}
{"molecule": "CCN(CC(=O)Nc1c(F)cccc1F)C(=O)CCNC(=O)c1ccco1", "values": [{"measurement": "cell number change", "result": -27.7, "unit": "%"}]}
{"molecule": "CC(C)[C@H](N)c1nnc(SCc2ccc(Cl)cc2)o1", "values": [{"measurement": "cell number change", "result": 51.5, "unit": "%"}, {"measurement": "AC50", "setting": "[1]", "result": "16.4 µM [rising, single point]"}]}
{"molecule": "CC(C)c1ccc(CSc2ccc(S(=O)(=O)N3CCOCC3)cn2)cc1", "values": [{"measurement": "cell number change", "result": -14.2, "unit": "%"}, {"measurement": "AC50", "setting": "[2]", "result": "23.1 µM [rising, single point]"}]}
{"molecule": "CCc1noc(C)c1C(=O)N1CCN(S(=O)(=O)c2c(C)cc(C)cc2C)CC1", "values": [{"measurement": "cell number change", "result": -5.09, "unit": "%"}, {"measurement": "AC50", "setting": "[2]", "result": "6.51 µM [falling, single point]"}]}
{"molecule": "COCCn1c(C)cc(C(=O)CSc2nnc3ccccn23)c1C", "values": [{"measurement": "cell number change", "result": -20.5, "unit": "%"}, {"measurement": "AC50", "setting": "[2]", "result": "0.731 µM [falling, full curve, poor fit]"}]}
{"molecule": "Clc1ccc(CSc2nncn2-c2ccccn2)cc1", "values": [{"measurement": "cell number change", "result": -7.86, "unit": "%"}]}
{"molecule": "Cc1cc(C)nc(SCc2ccc(C(=O)NN=C3CCCC3)cc2)n1", "values": [{"measurement": "AC50", "setting": "[2]", "result": "0.116 µM [rising, full curve, poor fit]"}]}
{"molecule": "CN(Cc1ccccc1)C(=O)CCC1CCN(C(=O)CCC(F)(F)F)CC1", "values": [{"measurement": "AC50", "setting": "[2]", "result": "0.184 µM [rising, full curve, poor fit]"}]}
{"molecule": "Cc1ccc(NC(=O)c2c(C)nc(Nc3nc4ccccc4o3)nc2C)cc1", "values": [{"measurement": "cell number change", "result": -129, "unit": "%"}, {"measurement": "AC50", "setting": "[1]", "result": "29.1 µM [falling, single point]"}, {"measurement": "AC50", "setting": "[2]", "result": "29.1 µM [falling, single point]"}]}
{"molecule": "COc1ccc(OC)c(-c2csc(NC(=O)c3ccc(OCC4CCCO4)cc3)n2)c1", "note": "(stereo not drawn)", "values": [{"measurement": "cell number change", "result": -13.3, "unit": "%"}, {"measurement": "AC50", "setting": "[2]", "result": "18.4 µM [falling, single point]"}]}
{"molecule": "CCOc1ccccc1NC(=O)CCC(=O)Nc1ccccc1OCC", "values": [{"measurement": "cell number change", "result": 78.4, "unit": "%"}, {"measurement": "AC50", "setting": "[1]", "result": "29.1 µM [rising, single point]"}]}
{"molecule": "Cc1ccc(C)n1-c1nn(S(=O)(=O)c2cccc(C(F)(F)F)c2)c2cccc(F)c12", "values": [{"measurement": "AC50", "setting": "[1]", "result": "0.58 µM [rising, single point]"}]}
{"molecule": "COc1ccccc1CCC(=O)Nc1ncc(C)s1", "values": [{"measurement": "cell number change", "result": -11.9, "unit": "%"}]}
{"molecule": "Cc1ccc(C(=O)N/C(=C\\c2cccs2)C(=O)NCCCn2ccnc2)cc1", "values": [{"measurement": "cell number change", "result": -29.3, "unit": "%"}, {"measurement": "AC50", "setting": "[2]", "result": "1.64 µM [falling, full curve]"}]}
{"molecule": "C=CCc1ccc(OCCOCCNCCCC)c(OC)c1", "values": [{"measurement": "cell number change", "result": 16.3, "unit": "%"}, {"measurement": "AC50", "setting": "[2]", "result": "6.51 µM [falling, single point]"}]}
{"molecule": "O=C(O)c1ccc(/C=N/N2CCN(Cc3ccccc3)CC2)cc1", "values": [{"measurement": "cell number change", "result": -23.8, "unit": "%"}]}
{"molecule": "O=C(Nc1ccc2c(c1)OCO2)c1cccc2c1C(=O)N(Cc1cccnc1)C2", "values": [{"measurement": "cell number change", "result": -4.73, "unit": "%"}, {"measurement": "AC50", "setting": "[2]", "result": "1.64 µM [rising, partial curve]"}]}
{"molecule": "CC1(CCc2ccccc2)NC(=S)N(c2ccccc2)N1", "note": "(stereo not drawn)", "values": [{"measurement": "cell number change", "result": -6.58, "unit": "%"}, {"measurement": "AC50", "setting": "[2]", "result": "0.103 µM [rising, full curve, poor fit]"}]}
{"molecule": "O=C1[C@@H]2Cc3c([nH]c4ccccc34)C(c3ccccc3)N2C(=O)CN1C1CC1", "note": "(stereo partly drawn)", "values": [{"measurement": "AC50", "setting": "[2]", "result": "25.9 µM [falling, partial curve, poor fit]"}]}
{"molecule": "CCCCC(c1nnnn1CS(=O)(=O)c1ccc(C)cc1)N1CCC(C(N)=O)CC1", "note": "(stereo not drawn)", "values": [{"measurement": "cell number change", "result": 6.85, "unit": "%"}]}
{"molecule": "CC(C)C(NC(=O)C(c1ccccc1)c1ccccc1)c1nc2ccccc2[nH]1", "note": "(stereo not drawn)", "values": [{"measurement": "cell number change", "result": -9.76, "unit": "%"}, {"measurement": "AC50", "setting": "[2]", "result": "0.116 µM [falling, full curve, poor fit]"}]}
{"molecule": "COc1ccc(C)cc1Nc1n[n+](-c2ccccc2)c(-c2c(Cl)cccc2Cl)s1", "values": [{"measurement": "cell number change", "result": -36.6, "unit": "%"}, {"measurement": "AC50", "setting": "[1]", "result": "18.4 µM [falling, single point]"}]}
{"molecule": "CCOC(=O)c1c(OCCO)nn(-c2ccc(Cl)cc2)c1N", "values": [{"measurement": "cell number change", "result": 44, "unit": "%"}, {"measurement": "AC50", "setting": "[1]", "result": "9.2 µM [rising, single point]"}]}
{"molecule": "COCC1CCCCN1C(=O)c1ccc2oc(CCc3ccccc3)nc2c1", "note": "(stereo not drawn)", "values": [{"measurement": "cell number change", "result": -15.5, "unit": "%"}]}
{"molecule": "CCOc1ccc(NC(=S)N2CCC(NC(=O)c3ccco3)CC2)cc1", "values": [{"measurement": "cell number change", "result": 23, "unit": "%"}, {"measurement": "AC50", "setting": "[2]", "result": "1.64 µM [rising, full curve]"}]}
{"molecule": "CCCCCCn1cnc2c(c1=O)c1nc3ccccc3nc1n2Cc1cccs1", "values": [{"measurement": "cell number change", "result": 17.5, "unit": "%"}, {"measurement": "AC50", "setting": "[1]", "result": "0.82 µM [rising, full curve, poor fit]"}, {"measurement": "AC50", "setting": "[2]", "result": "0.206 µM [rising, full curve]"}]}
{"molecule": "O=C(Nc1ccc(N2CCN(C(=O)c3cccs3)CC2)cc1)c1ccccc1F", "values": [{"measurement": "cell number change", "result": 158, "unit": "%"}, {"measurement": "AC50", "setting": "[1]", "result": "25.9 µM [rising, partial curve]"}]}
{"molecule": "Cc1nnc2n1N=CC=C(c1ccccc1)S2", "values": [{"measurement": "cell number change", "result": 5.6, "unit": "%"}]}
{"molecule": "Cc1ccc(CSCCNC(=O)CN(c2ccc(F)cc2)S(C)(=O)=O)cc1", "values": [{"measurement": "cell number change", "result": 4.11, "unit": "%"}, {"measurement": "AC50", "setting": "[2]", "result": "0.116 µM [falling, full curve, poor fit]"}]}
{"molecule": "Cc1ccccc1-c1cc(C(=O)NCc2cccc(C(F)(F)F)c2)nn1CC1CC(c2cccc([N+](=O)[O-])c2)=NO1", "note": "(stereo not drawn)", "values": [{"measurement": "cell number change", "result": 14.8, "unit": "%"}, {"measurement": "AC50", "setting": "[2]", "result": "5.17 µM [falling, partial curve]"}]}
{"molecule": "COC(=O)c1cc(S(=O)(=O)NCc2cccc(OC)c2)cn1C", "values": [{"measurement": "cell number change", "result": -1.15, "unit": "%"}, {"measurement": "AC50", "setting": "[2]", "result": "6.51 µM [rising, single point]"}]}
{"molecule": "CC(=O)c1ccc2c(c1)C1C=CCC1C(c1cc3c(cc1Br)OCO3)N2", "note": "(stereo not drawn)", "values": [{"measurement": "cell number change", "result": 18.7, "unit": "%"}, {"measurement": "AC50", "setting": "[1]", "result": "0.517 µM [rising, full curve, poor fit]"}]}
{"molecule": "COc1ccc(N(CC(=O)NCc2cccnc2)S(=O)(=O)c2c(C)nn(C)c2C)cc1", "values": [{"measurement": "cell number change", "result": -35.7, "unit": "%"}, {"measurement": "AC50", "setting": "[1]", "result": "6.51 µM [falling, single point]"}, {"measurement": "AC50", "setting": "[2]", "result": "6.51 µM [falling, single point]"}]}
